# In PubChem BioAssay AID651640 (Broad Institute, 2012):
# Out of some 350,000 compounds screened, about 6,000 (1.7%) were called active. Inconclusive means that the source gave no clear call. Such entries were picked first, then a sample of the others. Cut-off read from the data, not from the text of the source: active = CPE inhibition above about 20% (passing the limit was not always enough); inconclusive = no clear call, values can overlap the other calls; tested in BHK-21 cells.
# Test: protection of cells from dengue 2 killing – plate reader, single concentration, primary screen (AID 651640);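 note: 0% = median of neutral control wells and 100% = median of positive control wells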
# Settings: DENV2-infected cells, cytopathic effect rescue, at 9.99 µM, hits give high values
row,Compound,CPE inhibition
1,CCC(=O)Nc1ccc2c(c1)C(=O)N(C)C[C@H](OC)[C@H](C)CN(Cc1cccnc1)[C@H](C)CO2,inactive: 2.54%
2,CCOC(=O)C1=CC[C@@H](c2cccc(Br)c2)N(S(=O)(=O)c2ccc(F)cc2)[C@H]1c1cccc(Cl)c1,inactive: -3.01%
3,CCCN1[C@H](C(=O)NC2CCCC2)[C@@H](CO)[C@@H]2Cn3c(ccc(-c4cccnc4)c3=O)[C@@H]21,inactive: -8.88%
4,C[C@@H]1CCCCO[C@@H](CN(C)S(=O)(=O)c2cn(C)cn2)[C@H](C)CN([C@H](C)CO)C(=O)c2cc(NS(=O)(=O)c3ccc(F)cc3)ccc2O1,inconclusive: 46.9%
5,COc1ccc2c3c(n(C)c2c1)[C@@H](CO)N(C(=O)NC(C)C)CC31CN(C(=O)NC(C)C)C1,inactive: -5.62%
6,CO[C@@H]1CN(C)C(=O)c2ccc(NC(=O)NC(C)C)cc2OC[C@@H](C)N(Cc2ccccn2)C[C@H]1C,inactive: 13.3%
7,O=C(NC[C@H]1CC[C@H]2[C@H](CN2Cc2cccc(Cl)c2)O1)C1CCOCC1,active: 58.2%
8,O=C(COc1ccc(S(=O)(=O)N2CCCC2)cc1Cl)NCc1ccccn1,inconclusive: 21.4%
9,Cc1ccc(C(=O)N/N=C/c2cc(Br)ccc2O)cn1,inactive: 11.5%
10,O=C(COC(=O)/C=C/c1cccc(F)c1)NC1CCCCC1,inconclusive: 20.4%
11,O=C(O)CCn1cc(C(=O)O)c(-c2ccccc2)n1,inconclusive: 24%
12,C[C@@H]1CN([C@H](C)CO)S(=O)(=O)c2ccc(-c3ccccc3)cc2O[C@@H]1CN(C)Cc1ccccn1,inactive: -6.97%
13,CC(C)CNC(=O)C1(C)CCCCCN1C(=O)c1cc(C#N)cs1 (configuration not stated),inconclusive: 45.8%
14,Cc1ccc(C(=O)Nc2ccc(CN3CCCCC3)cc2)c(C)c1,active: 34.8%
15,COCCCNC(=O)C1CCN(C(=O)c2oc3cc4sc(N(C)C)nc4cc3c2C)CC1,inconclusive: 43%
16,Clc1ccc(-c2nc3c4ccccc4ccn3c2CC2CCCCC2)cc1,inconclusive: 57.6%
17,Cc1cccc(C(=O)NCC(C)NC(=O)c2cccc(C)c2)c1 (configuration not stated),inconclusive: 26%
18,CC1=Nc2cc(C(=O)NCCN3CCOCC3)ccc2Sc2c(C)ccc(C)c21,inconclusive: 20.4%
19,CC1CC(C)CN(C(=O)CN(C)S(=O)(=O)c2ccc3c(c2)c(=O)n(C)c(=O)n3C)C1 (configuration not stated),inconclusive: 24.3%
20,CN(Cc1cccc(F)c1)C(=O)c1ccc2c(=O)n3c(nc2c1)CCC3,inconclusive: 33.9%
21,COc1cccc(C(=O)Nc2ccc3c(c2)C(=O)N(C)C[C@H](OC)[C@@H](C)CN(C)[C@@H](C)CO3)c1,inconclusive: 28.4%
22,COc1cccc(C(O)c2nc(-c3cccc(NC(C)=O)c3)cs2)c1 (configuration not stated),inconclusive: 30.5%
23,CC(C)(C)C(Cn1ccnc1)NC(=O)c1ccc2nc(C3CC3)oc2c1 (configuration not stated),inconclusive: 46.8%
24,CCCN(C)C[C@@H]1Oc2ncc(-c3ccccc3F)cc2C(=O)N([C@@H](C)CO)C[C@@H]1C,active: 38.8%

row,Compound,CPE inhibition
1,CNC[C@@H]1Oc2c(NC(=O)C3CC3)cccc2C(=O)N([C@@H](C)CO)C[C@@H]1C,inconclusive: 24.4%
2,C[C@H]1CN([C@@H](C)CO)C(=O)c2c(c3ccccc3n2C)-c2ccccc2CO[C@@H]1CN(C)S(=O)(=O)c1ccc(C(F)(F)F)cc1,inconclusive: 2.45%
3,Cc1ccc(S(=O)(=O)Nc2ccc3c(c2)C(=O)N([C@H](C)CO)C[C@@H](C)[C@H](CN(C)C(=O)NC2CCCCC2)O3)cc1,active: 40.8%
4,O=S(=O)(c1ccccc1)N1CC2(C1)[C@H](c1ccccc1)[C@@H](CO)N2CC1CC1,inactive: 18.2%
5,C[C@@H]1CN([C@H](C)CO)C(=O)c2cc(NC(=O)Cc3ccccc3)ccc2O[C@@H](C)CCCCO[C@@H]1CN(C)S(=O)(=O)c1ccccc1,inactive: -3.61%
6,O=C(CSc1n[nH]c(-c2ccccc2O)n1)NC1CCCCC1,inconclusive: 20.6%
7,CCCC(=O)Nc1ccc2c(c1)C(=O)N(C)C[C@@H](OC)[C@H](C)CN(CCc1ccccc1)[C@H](C)CO2,inactive: 2.93%
8,Cc1ccccc1CN1CCC(n2nccc2NC(=O)CCCc2ccccc2)CC1,inconclusive: 21.9%
9,COc1ccc(CN(C)C[C@@H]2OCCCC[C@H](C)Oc3ccc(NS(=O)(=O)c4ccc(OC)cc4)cc3C(=O)N([C@H](C)CO)C[C@H]2C)cc1,inactive: -3.9%
10,Cc1ccc(S(=O)(=O)NCC[C@@H]2CC[C@H](NC(=O)CCN3CCCCC3)[C@H](CO)O2)cc1,active: 72.6%
11,COc1ccc(C(=O)NNC(=O)C(=O)NC2CCCCC2)cc1,inconclusive: 28.2%
12,O=C1OC(/C=C/c2ccccc2)=NC/1=C/c1ccco1,inconclusive: 25.4%
13,CC(=NO)c1cc(Br)c2cccc3c2c1CC3,inconclusive: 26.5%
14,CCOc1ccc(Oc2nc(NCC(C)C)nc(OC)n2)nn1,active: 35.6%
15,C[C@H]1CN([C@@H](C)CO)C(=O)Cc2cc(N(C)C)ccc2O[C@H]1CN(C)C(=O)NC1CCCCC1,inconclusive: 21.2%
16,CCCC(=O)N1CC2(CN(C(=O)NC(C)C)C2)c2c(n(C)c3cc(OC)ccc23)[C@@H]1CO,inconclusive: 21.7%
17,CCCCC(CC)CNCc1cccn1CCN1CCOCC1 (configuration not stated),inconclusive: 46%
18,O=C(NC(=S)Nc1ccc(Cl)c(C(=O)O)c1)c1ccc(OCc2ccccc2)cc1,inconclusive: 39.3%
19,COc1ccccc1/C=C1\SC(=O)N(CCC(=O)N(C)C2CCS(=O)(=O)C2)C1=O (configuration not stated),inconclusive: 37%
20,Cc1ccc(S(=O)(=O)N[C@@H]2CC[C@@H](CCNC(=O)CN3CCOCC3)O[C@H]2CO)cc1,active: 25.9%
21,Cc1noc(C)c1NC(=O)N(C)C[C@@H]1Oc2c(NC(=O)Nc3ccc(C(F)(F)F)cc3)cccc2C(=O)N([C@@H](C)CO)C[C@H]1C,inactive: 6.62%
22,N#C[C@H]1[C@H](c2ccc(-c3cccc(F)c3)cc2)[C@@H](CO)N1C(=O)c1cccnc1,inconclusive: 32.9%
23,COc1ccc(C#Cc2cnc3c(c2)C(=O)N([C@@H](C)CO)C[C@H](C)[C@H](CN(C)CC2CCCC2)O3)cc1,active: 37%

# Sorted by SMILES length (descending): three of the compounds above
row,Compound,CPE inhibition
23,COc1ccc(C#Cc2cnc3c(c2)C(=O)N([C@@H](C)CO)C[C@H](C)[C@H](CN(C)CC2CCCC2)O3)cc1,active: 37%
20,Cc1ccc(S(=O)(=O)N[C@@H]2CC[C@@H](CCNC(=O)CN3CCOCC3)O[C@H]2CO)cc1,active: 25.9%
1,CNC[C@@H]1Oc2c(NC(=O)C3CC3)cccc2C(=O)N([C@@H](C)CO)C[C@@H]1C,inconclusive: 24.4%
